Patent WO2011147834A1 (dated 2011)
Results are given in words; binding and its absence hold for the method and conditions named. For part of these data: Binding calls can cover weak binding; strength is not graded here.

What was measured:
Assay in all cases: FACS on B-cells of the respective species
dog CD19 (dog) = target: dog CD19 (dog)
hamster CD19 (hamster) = target: hamster CD19 (hamster)
[1] = target: chimpanzee CD19 (chimpanzee)

B1: Mab381 (antibody, V domains shown)
VH: QVQLQQSGAELVRPGSSMKISCKASGYAFSSYWMNWVKQRPGQGLEWIGQIYPGDGDINYSGKFKGKVTLTADKSSSTAYMQLSSLTSEDSAVYFCARTITTVVGYVMDYWGQGTSVTVSS
VL: DIVMTQSHKFMSTSVGDRVSITCKASQDVGTVVAWYQQKPGQSPKLLIYWASTRHTGVPDRFTGSGSGTDFTLTISNVQSEDLADYFCQQYSSYPYTFGGGTKLEIKR
notes: Murine monoclonal antibody purified from hybridoma 8C3
- binding (dog CD19 (dog)): no binding
- binding (hamster CD19 (hamster)): no binding
- binding [1]: binds
